These are yes or no findings as the source states them, for the method shown. Some binding calls cover weakened binding; strength is not graded here. Values belong to the binder of their own block, whether it stands above or below them.
How the values were obtained:
[1] = target: hSIRPα expressed on primary human cells (human) (UniProt P78324); experiment: flow cytometry on CD14+ enriched monocytes, human donor 2, AF647 goat-anti-mouse IgG
[2] = target: hSIRPα expressed on primary human cells (human) (UniProt P78324); experiment: flow cytometry on CD14+ enriched monocytes, human donor 1; blocked ligand: DyLight 488-labeled recombinant hCD47/Fc
[3] = target: hSIRPα expressed on primary human cells (human) (UniProt P78324); experiment: flow cytometry
[4] = target: hSIRPα expressed on primary human cells (human) (UniProt P78324); experiment: flow cytometry on CD14+ enriched monocytes, human donor 1, AF647 goat-anti-mouse IgG
[5] = target: hSIRPα expressed on primary human cells (human) (UniProt P78324); experiment: flow cytometry, primary human granulocytes
[6] = target: hSIRPα expressed on primary human cells (human) (UniProt P78324); experiment: flow cytometry, primary CD14+ enriched monocytes
[7] = target: hSIRPα expressed on primary human cells (human) (UniProt P78324); experiment: flow cytometry on CD14+ enriched monocytes, human donor 2; blocked ligand: DyLight 488-labeled recombinant hCD47/Fc
[8] = target: hSIRPα expressed on primary human cells (human) (UniProt P78324); experiment: flow cytometry on primary human granulocytes, FITC goat-anti-mouse Ig

Chains of the proteins cited; added tags and fusions are not shown. Residues count along the entry.
UniProt P78324, residues 31-504: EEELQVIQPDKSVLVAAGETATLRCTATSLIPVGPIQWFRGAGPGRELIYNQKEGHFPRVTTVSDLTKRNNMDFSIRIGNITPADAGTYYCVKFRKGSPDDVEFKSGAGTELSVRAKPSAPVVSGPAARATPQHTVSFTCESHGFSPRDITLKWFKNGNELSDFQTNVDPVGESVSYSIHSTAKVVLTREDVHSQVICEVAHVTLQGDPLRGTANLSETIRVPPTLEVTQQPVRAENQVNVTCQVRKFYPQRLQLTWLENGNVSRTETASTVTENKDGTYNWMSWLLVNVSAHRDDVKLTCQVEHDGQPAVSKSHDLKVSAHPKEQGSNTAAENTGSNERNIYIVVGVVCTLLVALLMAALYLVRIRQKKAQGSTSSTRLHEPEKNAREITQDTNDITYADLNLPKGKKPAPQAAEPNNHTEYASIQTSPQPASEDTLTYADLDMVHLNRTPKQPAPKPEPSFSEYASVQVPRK

binding [1]: binds | binding [2]: binds | binding [3]: binds | binding [4]: binds | binding [5]: binds | binding [6]: binds | binding [7]: binds
B1: hSIRPα.40A (antibody, mouse IgG1, kappa, V domains shown)
VH: EVQFQQSGTVLARPGTSVKMSCKASGSTFTSYWMHWVKQGPGQGLQWIGAIYPVNNDTTYNQKFKGKAELTVVTSTSTAYMEVSSLTNEDSAVYYCTRSFYYSLDAAWFVYWGQGTLVTVSA
VL: DIQMTQSPSSLSASLGERVSLTCRASQDIGSRLNWLQQEPDGTIKRLIYATSSLDSGVPKRFSGSRSGSDYSLTISGLESEDFVDYYCLQYASSPFTFGGGTKLEINR

binding [3]: binds | binding [8]: binds | binding [5]: binds | binding [6]: binds
B2: hSIRPα.50A (antibody, V domains shown)
VH: QVQLQQSGPELVKPGASVRISCKASGFTFTNYYIHWVKQRPGQGLEWIGWIYPGNVNTKYNEKFKAKATLTADKSSTTAYMQLSSLASEDSAVYFCARPTIIATDFDVWGAGTTVTVSS
VL: DIVMTQSHKFMSTSVGDRVNITCKASQGVGTAVGWYQQKPGQSPRLLIYWASTRHTGVPDRFTGSGSGTDFSLAISNVQSEDLADYFCQQYSTYPFTFGGGTNLEIK

Source: patent US20180312587A1
